Earlier results in US4433147A, “Process for preparing 10-deazaminopterins” (priority 1982, dated 1984).
For at least one compound, name, drawing or mass did not settle the structure.

Tested on: dihydrofolic reductase
Conditions: cited from earlier work

Nc1nc(N)c2nc(CNc3ccc(C(=O)N[C@@H](CCC(=O)O)C(=O)O)cc3)cnc2n1 [aminopterin]
dihydrofolic reductase inhibition: powerful dihydrofolic reductase inhibitors
